These are yes or no findings as the source states them, for the method shown. Binding seen in cells or lysates may run through a third protein. Some binding calls cover weakened binding; strength is not graded here. Where a sequence is shown, tags or fusion partners need not be part of it.
Legend:
galectin-4 (human) = target: T1, galectin-4 (human) (UniProt P56470); assay: GST pull-down from NCI-H630 lysate (HepG2 lysate as control), LC-MS/MS; MASCOT score 75
T1 sequence (looked up): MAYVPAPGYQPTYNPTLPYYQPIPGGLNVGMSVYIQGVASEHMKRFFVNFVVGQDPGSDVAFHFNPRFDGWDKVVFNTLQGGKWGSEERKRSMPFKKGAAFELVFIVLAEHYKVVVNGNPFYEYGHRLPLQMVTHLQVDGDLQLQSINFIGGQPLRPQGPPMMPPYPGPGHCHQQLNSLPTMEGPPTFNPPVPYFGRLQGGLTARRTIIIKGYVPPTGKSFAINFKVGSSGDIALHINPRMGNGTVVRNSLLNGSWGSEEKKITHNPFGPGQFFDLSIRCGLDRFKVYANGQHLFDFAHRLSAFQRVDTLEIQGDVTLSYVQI

The chains behind the UniProt entries cited, without tags or fusion partners. Residues count along the entry.
UniProt P06753, residues 2-285: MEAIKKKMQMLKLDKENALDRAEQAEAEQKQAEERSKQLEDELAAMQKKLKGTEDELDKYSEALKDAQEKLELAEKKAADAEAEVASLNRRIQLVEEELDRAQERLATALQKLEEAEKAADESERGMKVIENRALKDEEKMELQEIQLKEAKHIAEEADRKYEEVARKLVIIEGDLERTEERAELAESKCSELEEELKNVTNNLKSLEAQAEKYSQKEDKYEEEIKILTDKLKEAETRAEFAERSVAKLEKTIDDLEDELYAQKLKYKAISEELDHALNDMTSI
UniProt Q01082, residues 2-2364: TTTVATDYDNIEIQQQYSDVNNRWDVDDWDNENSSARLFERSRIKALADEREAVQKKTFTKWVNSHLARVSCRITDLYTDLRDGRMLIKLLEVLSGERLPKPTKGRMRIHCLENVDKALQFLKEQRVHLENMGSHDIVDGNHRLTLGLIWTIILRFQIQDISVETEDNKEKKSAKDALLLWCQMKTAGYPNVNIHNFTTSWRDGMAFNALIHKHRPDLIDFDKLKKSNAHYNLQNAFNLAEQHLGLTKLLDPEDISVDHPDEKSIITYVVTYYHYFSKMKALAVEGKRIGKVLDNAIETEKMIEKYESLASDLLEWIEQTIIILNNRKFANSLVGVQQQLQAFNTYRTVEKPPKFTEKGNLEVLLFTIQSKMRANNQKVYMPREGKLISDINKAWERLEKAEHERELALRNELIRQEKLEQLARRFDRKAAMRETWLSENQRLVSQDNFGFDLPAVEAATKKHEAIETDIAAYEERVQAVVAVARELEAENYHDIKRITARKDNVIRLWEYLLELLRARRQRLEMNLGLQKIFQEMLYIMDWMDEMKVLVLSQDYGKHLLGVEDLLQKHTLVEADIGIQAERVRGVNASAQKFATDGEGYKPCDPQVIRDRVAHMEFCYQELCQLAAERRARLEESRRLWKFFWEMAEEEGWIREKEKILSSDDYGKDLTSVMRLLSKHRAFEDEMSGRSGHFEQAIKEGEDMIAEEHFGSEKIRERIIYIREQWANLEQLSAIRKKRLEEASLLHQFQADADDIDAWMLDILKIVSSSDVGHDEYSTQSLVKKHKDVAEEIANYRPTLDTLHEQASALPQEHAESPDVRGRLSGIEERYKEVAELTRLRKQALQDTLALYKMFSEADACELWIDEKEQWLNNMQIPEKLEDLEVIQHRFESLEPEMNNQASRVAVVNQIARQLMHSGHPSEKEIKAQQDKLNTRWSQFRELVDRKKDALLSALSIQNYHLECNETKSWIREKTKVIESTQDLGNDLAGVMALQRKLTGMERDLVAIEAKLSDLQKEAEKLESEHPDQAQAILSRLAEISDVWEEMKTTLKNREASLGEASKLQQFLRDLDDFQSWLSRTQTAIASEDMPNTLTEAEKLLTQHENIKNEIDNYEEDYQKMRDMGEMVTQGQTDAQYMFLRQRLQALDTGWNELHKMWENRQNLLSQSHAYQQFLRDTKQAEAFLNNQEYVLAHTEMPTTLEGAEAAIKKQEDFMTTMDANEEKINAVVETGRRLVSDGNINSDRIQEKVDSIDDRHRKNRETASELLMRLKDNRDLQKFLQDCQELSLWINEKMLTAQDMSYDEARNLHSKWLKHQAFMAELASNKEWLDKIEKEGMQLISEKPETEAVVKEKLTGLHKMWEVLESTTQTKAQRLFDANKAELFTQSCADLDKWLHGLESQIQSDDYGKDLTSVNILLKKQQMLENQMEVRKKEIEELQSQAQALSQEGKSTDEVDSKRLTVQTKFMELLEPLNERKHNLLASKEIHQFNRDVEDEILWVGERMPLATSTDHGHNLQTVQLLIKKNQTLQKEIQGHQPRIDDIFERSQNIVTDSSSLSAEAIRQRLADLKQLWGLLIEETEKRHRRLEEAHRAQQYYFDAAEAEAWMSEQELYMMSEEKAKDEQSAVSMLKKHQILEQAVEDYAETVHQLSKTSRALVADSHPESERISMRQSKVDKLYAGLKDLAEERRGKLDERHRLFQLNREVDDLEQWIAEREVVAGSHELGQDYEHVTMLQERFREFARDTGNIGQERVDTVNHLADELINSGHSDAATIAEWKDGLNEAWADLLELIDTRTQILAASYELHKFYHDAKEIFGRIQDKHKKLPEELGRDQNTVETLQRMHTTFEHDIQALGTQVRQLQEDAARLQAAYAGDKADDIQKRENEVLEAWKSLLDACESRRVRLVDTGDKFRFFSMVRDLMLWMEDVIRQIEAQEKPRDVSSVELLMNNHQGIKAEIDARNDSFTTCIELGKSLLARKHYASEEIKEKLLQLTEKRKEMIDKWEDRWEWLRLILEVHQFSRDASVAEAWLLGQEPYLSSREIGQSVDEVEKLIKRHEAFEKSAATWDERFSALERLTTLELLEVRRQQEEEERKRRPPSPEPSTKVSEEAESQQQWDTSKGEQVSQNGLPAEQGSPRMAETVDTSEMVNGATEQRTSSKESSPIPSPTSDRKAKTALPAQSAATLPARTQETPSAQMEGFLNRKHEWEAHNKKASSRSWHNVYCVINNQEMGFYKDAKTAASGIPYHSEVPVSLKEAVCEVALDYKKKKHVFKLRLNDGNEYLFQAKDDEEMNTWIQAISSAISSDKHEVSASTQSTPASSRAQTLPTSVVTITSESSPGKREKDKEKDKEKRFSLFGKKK
UniProt P68371: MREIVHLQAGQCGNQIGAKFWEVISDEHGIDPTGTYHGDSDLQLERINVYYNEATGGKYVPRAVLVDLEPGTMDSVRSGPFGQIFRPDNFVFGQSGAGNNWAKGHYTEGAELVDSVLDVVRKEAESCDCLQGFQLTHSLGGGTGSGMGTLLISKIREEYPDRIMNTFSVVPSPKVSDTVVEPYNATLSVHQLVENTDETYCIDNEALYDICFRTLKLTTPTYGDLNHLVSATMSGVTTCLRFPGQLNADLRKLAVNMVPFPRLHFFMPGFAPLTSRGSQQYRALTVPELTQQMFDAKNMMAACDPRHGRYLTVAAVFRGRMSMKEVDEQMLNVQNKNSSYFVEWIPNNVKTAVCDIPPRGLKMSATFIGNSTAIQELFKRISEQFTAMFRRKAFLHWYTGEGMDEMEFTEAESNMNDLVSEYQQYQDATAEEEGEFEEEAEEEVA
UniProt Q00839, residues 2-825: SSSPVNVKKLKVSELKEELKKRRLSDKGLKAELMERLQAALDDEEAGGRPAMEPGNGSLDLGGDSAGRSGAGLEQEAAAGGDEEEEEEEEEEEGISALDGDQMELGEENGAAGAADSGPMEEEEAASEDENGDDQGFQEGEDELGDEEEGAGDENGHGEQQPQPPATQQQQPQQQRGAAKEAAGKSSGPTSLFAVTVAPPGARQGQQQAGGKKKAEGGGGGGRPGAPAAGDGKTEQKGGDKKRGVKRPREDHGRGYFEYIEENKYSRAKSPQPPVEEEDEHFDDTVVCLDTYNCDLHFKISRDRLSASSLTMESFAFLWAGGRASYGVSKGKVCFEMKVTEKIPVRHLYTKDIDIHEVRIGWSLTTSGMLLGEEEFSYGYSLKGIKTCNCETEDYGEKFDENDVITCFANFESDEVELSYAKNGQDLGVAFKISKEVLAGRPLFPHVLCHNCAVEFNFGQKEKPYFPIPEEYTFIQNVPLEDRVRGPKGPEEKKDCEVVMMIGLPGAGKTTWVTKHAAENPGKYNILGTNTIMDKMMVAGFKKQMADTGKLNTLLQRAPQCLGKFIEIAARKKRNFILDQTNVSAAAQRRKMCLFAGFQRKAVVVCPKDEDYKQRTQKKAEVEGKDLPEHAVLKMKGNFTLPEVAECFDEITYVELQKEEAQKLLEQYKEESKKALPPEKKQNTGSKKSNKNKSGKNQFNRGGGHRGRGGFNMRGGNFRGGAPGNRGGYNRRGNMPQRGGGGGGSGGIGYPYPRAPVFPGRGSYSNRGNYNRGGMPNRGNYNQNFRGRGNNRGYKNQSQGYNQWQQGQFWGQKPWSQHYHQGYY

[1] = target: T2, NADPH-carbonyl reductase (human) (UniProt P16152); assay: GST pull-down from NCI-H630 lysate (HepG2 lysate as control), LC-MS/MS; MASCOT score 74
T2 sequence (looked up): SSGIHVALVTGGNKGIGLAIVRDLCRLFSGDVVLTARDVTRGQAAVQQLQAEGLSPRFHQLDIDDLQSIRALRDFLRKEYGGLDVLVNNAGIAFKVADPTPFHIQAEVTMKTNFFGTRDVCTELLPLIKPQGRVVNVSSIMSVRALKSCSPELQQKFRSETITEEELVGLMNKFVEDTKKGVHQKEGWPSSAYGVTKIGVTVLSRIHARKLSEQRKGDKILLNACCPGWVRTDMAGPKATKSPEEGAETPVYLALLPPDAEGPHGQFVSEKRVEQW

α6 integrin (human) = target: T3, α6 integrin (human) (UniProt P23229); assay: GST pull-down from NCI-H630 lysate (HepG2 lysate as control), LC-MS/MS; MASCOT score 98
T3 sequence: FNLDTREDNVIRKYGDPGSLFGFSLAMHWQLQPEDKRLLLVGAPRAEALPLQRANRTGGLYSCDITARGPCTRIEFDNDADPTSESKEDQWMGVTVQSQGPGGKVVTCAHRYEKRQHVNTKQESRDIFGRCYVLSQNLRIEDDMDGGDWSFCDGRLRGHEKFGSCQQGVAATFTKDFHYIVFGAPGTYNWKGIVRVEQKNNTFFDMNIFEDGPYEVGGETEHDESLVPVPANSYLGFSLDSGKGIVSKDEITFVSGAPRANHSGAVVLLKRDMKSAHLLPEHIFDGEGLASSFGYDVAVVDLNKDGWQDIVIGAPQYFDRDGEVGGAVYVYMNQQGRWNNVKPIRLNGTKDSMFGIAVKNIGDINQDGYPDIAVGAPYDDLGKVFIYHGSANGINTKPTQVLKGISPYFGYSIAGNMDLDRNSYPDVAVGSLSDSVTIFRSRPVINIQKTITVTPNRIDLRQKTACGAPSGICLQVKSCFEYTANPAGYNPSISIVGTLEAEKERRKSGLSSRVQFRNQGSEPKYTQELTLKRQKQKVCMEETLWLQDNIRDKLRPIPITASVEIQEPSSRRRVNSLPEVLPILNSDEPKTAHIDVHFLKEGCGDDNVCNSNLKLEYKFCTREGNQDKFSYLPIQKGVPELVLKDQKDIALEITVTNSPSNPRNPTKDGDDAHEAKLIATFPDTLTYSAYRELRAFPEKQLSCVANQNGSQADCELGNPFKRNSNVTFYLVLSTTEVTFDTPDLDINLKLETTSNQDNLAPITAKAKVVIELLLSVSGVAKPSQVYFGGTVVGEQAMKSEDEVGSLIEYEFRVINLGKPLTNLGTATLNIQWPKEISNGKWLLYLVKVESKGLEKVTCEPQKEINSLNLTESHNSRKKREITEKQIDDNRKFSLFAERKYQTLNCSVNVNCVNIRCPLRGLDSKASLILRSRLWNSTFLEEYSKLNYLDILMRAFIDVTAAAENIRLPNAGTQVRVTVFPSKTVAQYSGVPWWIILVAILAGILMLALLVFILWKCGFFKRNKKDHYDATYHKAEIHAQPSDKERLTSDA

tropomyosin 3 (human) = tropomyosin 3 (human) (UniProt P06753); assay: GST pull-down from NCI-H630 lysate (HepG2 lysate as control), LC-MS/MS; MASCOT score 420
annexin A4 (human) = target: T4, annexin A4 (human) (UniProt P09525); assay: GST pull-down from NCI-H630 lysate (HepG2 lysate as control), LC-MS/MS; MASCOT score 237
T4 sequence (looked up): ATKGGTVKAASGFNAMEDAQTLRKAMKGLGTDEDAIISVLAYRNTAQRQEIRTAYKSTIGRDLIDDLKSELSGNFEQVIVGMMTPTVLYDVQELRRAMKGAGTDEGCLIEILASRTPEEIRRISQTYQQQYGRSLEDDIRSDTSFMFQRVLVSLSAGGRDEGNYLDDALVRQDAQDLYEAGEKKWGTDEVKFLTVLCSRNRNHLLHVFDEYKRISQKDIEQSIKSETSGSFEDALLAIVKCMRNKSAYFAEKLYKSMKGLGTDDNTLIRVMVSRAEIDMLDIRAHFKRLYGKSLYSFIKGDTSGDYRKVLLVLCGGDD

spectrin β chain (human) = spectrin β chain (human) (UniProt Q01082); assay: GST pull-down from NCI-H630 lysate (HepG2 lysate as control), LC-MS/MS; MASCOT score 1989
[2] = target: tubulin β-2 chain (human) (UniProt P68371); assay: GST pull-down from NCI-H630 lysate (HepG2 lysate as control), LC-MS/MS; MASCOT score 84
hnRNP U (human) = hnRNP U (human) (UniProt Q00839); assay: GST pull-down from NCI-H630 lysate (HepG2 lysate as control), LC-MS/MS; MASCOT score 124

Measured: binding

B1: …-GST (peptide, not shown: a dimerising Fc or GST)
chain: CGIYRLRSC
binds: all assays above
